Data taken from article doi:10.1101/281196.
These are yes or no findings as the source states them, for the method shown. In cells and extracts the contact can be indirect. Some binding calls cover weakened binding; strength is not graded here.

By UniProt entry, the sequences of proteins in these tests, tags left out.
UniProt Q14676: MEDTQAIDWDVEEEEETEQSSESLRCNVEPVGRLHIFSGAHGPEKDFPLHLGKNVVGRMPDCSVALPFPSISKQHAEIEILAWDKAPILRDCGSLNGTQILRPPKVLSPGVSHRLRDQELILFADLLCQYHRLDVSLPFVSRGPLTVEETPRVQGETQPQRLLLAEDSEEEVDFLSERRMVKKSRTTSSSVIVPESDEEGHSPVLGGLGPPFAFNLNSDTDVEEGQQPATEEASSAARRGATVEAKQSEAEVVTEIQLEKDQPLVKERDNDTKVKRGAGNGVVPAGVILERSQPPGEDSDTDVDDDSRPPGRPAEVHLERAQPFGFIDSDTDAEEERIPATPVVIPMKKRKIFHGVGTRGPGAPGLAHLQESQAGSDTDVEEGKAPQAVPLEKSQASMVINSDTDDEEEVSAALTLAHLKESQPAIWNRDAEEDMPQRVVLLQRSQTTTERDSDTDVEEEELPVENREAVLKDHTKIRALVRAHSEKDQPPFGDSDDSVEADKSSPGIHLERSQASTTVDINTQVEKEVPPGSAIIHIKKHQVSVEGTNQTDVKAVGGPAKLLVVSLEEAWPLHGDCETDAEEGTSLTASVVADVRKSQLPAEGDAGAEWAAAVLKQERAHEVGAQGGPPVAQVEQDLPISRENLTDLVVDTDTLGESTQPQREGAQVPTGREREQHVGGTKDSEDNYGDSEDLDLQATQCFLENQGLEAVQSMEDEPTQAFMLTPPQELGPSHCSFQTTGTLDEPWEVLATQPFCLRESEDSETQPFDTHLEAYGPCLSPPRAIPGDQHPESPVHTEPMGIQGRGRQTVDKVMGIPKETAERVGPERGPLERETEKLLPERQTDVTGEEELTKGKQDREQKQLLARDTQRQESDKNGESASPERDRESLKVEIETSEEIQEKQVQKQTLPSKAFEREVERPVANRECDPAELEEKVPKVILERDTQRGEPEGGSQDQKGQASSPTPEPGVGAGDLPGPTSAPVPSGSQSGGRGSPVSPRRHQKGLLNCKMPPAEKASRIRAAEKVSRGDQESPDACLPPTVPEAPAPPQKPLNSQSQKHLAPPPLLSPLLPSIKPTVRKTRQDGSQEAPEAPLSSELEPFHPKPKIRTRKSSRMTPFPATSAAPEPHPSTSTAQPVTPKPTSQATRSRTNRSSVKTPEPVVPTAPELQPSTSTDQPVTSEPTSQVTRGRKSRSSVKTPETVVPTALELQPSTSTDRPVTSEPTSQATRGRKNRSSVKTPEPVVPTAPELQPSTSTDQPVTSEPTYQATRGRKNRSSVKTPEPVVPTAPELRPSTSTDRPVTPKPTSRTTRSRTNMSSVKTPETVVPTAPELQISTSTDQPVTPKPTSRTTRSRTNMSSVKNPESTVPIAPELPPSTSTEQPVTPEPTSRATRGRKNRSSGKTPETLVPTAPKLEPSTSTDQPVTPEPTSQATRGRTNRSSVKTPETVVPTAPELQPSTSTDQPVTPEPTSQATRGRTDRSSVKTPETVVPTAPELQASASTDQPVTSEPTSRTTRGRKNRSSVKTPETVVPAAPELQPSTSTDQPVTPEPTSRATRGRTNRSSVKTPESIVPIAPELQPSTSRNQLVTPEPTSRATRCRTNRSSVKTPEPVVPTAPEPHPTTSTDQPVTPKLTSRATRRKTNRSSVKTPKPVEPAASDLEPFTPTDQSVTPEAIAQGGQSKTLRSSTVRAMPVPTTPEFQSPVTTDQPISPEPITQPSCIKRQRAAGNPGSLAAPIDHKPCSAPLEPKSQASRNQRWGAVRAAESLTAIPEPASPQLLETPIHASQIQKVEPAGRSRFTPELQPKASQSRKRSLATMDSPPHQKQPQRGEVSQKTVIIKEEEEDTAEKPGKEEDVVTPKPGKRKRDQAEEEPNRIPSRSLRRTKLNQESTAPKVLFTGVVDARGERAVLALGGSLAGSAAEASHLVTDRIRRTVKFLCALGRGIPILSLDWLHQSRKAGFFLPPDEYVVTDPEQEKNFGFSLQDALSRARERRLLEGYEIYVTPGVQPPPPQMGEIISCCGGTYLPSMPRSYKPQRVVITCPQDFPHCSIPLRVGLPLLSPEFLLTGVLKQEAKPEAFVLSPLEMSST

Legend:
[1] = biological target: T1, Inhibitor of Differentiation 4 (ID4) (human (endogenous in HCC70, MDA-MB-468, HCC1954, OVKATE and PDX tumours)) (UniProt P47928); experiment: proximity ligation
T1 sequence: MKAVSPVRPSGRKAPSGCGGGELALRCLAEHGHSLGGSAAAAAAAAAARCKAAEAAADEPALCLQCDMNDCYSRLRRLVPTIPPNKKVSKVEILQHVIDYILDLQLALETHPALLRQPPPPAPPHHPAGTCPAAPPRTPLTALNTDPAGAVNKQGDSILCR

[2] = biological target: T1, Inhibitor of Differentiation 4 (ID4) (human (endogenous in HCC70, MDA-MB-468, HCC1954, OVKATE and PDX tumours)); experiment: co-IP

In the case of “mediator of DNA damage checkpoint protein 1 (MDC1) (from UniProt Q14676 1-2089)”, the binding [1] is reported as “binds” and the binding [2] is reported as “binds”.
